Data reported in the supplement of paper PMC10331698.
± gives the standard deviation of the averaged measurements. Small differences around the control level are noise.

Legend:
Assay in all cases: level (log10 ratio to DMSO vehicle control); higher = higher biomarker level / cell amount than vehicle control
[1] = compound: COC(=O)C(F)(F)C(F)(F)OC(F)(C(F)(F)F)C(F)(F)OC(F)=C(F)F [Methyl perfluoro(3-(1-ethenyloxypropan-2-yloxy)propanoate)]; settings: in DMSO
Method: (§1)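 BioMAP Diversity Plus panel of 12 human primary cell co-culture systems (3C, 4H, LPS, SAg, BT, BF4T, BE3C, CASM3C, HDF3CGF, KF3CT, MyoF, Mphg). Compounds were added 1 h before stimulation and left for 24 h (MyoF 48 h; BT 72 h for soluble read-outs or 6 d for IgG). Biomarkers were read by ELISA, cytotoxicity by SRB, PBMC viability and proliferation by Alamar Blue. Each well value was divided by the mean of 8 DMSO control wells on the same plate and log10 transformed; duplicate blinded samples were tested at 4 concentrations.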

[2] = compound: FC(F)(F)C(F)(F)C(F)(F)CC1CO1 [1H,1H-Heptafluorobutyl epoxide]; settings: 2200 nM; in DMSO
Method: as §1

[3] = compound: NC(=O)C(F)(F)C(F)(F)C(F)(F)C(F)F; settings: in DMSO
Method: as §1

Pentafluoropropionamide = compound: NC(=O)C(F)(F)C(F)(F)F [Pentafluoropropionamide]; settings: 2200 nM; in DMSO
Method: as §1

[4] = compound: O=S(=O)(F)C(F)(F)C(F)(F)C(F)(F)C(F)(F)C(F)(F)C(F)(F)C(F)(F)C(F)(F)F [Perfluorooctanesulfonyl fluoride]; settings: 2200 nM; in DMSO
Method: as §1

[5] = compound: C=CC(F)(F)C(F)(F)C(F)(F)C(F)(F)C(F)(F)C(F)(F)C(F)(F)C(F)(F)C=C [1,8-Divinylperfluorooctane]; settings: in DMSO
Method: as §1

[6] = compound: C=C(C)C(=O)OCC(F)(F)C(F)(F)C(F)(F)C(F)(F)C(F)(F)C(F)(F)C(F)(F)F; settings: in DMSO
Method: as §1

[7] = compound: NS(=O)(=O)C(F)(F)C(F)(F)C(F)(F)C(F)(F)C(F)(F)C(F)(F)C(F)(F)C(F)(F)F [Perfluorooctanesulfonamide]; settings: in DMSO
Method: as §1

[8] = compound: O=P(O)(O)CCC(F)(F)C(F)(F)C(F)(F)C(F)(F)C(F)(F)C(F)(F)F [2-(Perfluorohexyl)ethylphosphonic acid]; settings: 2200 nM; in DMSO
Method: as §1

[9] = compound: OCCCCC(F)(F)C(F)(F)C(F)(F)C(F)(F)F [4:4 Fluorotelomer alcohol]; settings: 2200 nM; in DMSO
Method: as §1

[10] = compound: CO[Si](C)(CCC(F)(F)C(F)(F)C(F)(F)C(F)(F)C(F)(F)C(F)(F)F)OC [Dimethoxymethyl((perfluorohexyl)ethyl)silane]; settings: in DMSO
Method: as §1

[11] = compound: OCC(F)(F)C(F)(F)C(F)(F)C(F)(F)C(F)(F)C(F)F [1H,1H,7H-Dodecafluoro-1-heptanol]; settings: 2200 nM; in DMSO
Method: as §1

[12] = compound: O=S(=O)(OCC(F)(F)F)C(F)(F)C(F)(F)C(F)(F)C(F)(F)F [2,2,2-Trifluoroethyl perfluorobutanesulfonate]; settings: 2200 nM; in DMSO
Method: as §1

[13] = compound: O=C(O)C(F)(F)C(F)(F)C(F)F [4H-Perfluorobutanoic acid]; settings: in DMSO
Method: as §1

[14] = compound: O=S(=O)(O)C(F)(F)C(F)(F)C(F)(F)C(F)(F)C(F)(F)C(F)(F)C(F)(F)C(F)(F)F [Perfluorooctanesulfonic acid]; settings: 2200 nM; in DMSO
Method: as §1

Heptafluorobutyl iodide = compound: FC(F)(F)C(F)(F)C(F)(F)CI [Heptafluorobutyl iodide]; settings: 2200 nM; in DMSO
Method: as §1

[15] = compound: C=CC(=O)OCC(F)(F)C(F)(F)C(F)(F)C(F)(F)C(F)(F)C(F)(F)C(F)(F)F [1H,1H-Perfluorooctyl acrylate]; settings: 2200 nM; in DMSO
Method: as §1

[16] = compound: O=S(=O)(O)C(F)(F)C(F)(F)C(F)(F)C(F)(F)C(F)(F)C(F)(F)C(F)(F)C(F)(F)F [Potassium perfluorooctanesulfonate]; settings: 2200 nM; in DMSO
Method: as §1

Row | Test System | level (log10) ([1]; 740 nM) | level (log10) ([1]; 2200 nM) | level (log10) [2] | level (log10) ([3]; 2200 nM) | level (log10) ([3]; 6700 nM) | level (log10) ([3]; 20000 nM) | level (log10) ([3]; 60000 nM) | level (log10) (Pentafluoropropionamide) | level (log10) [4] | level (log10) ([5]; 740 nM) | level (log10) ([5]; 2200 nM) | level (log10) ([6]; 740 nM) | level (log10) ([6]; 2200 nM) | level (log10) ([7]; 2200 nM) | level (log10) ([7]; 6700 nM) | level (log10) ([7]; 20000 nM) | level (log10) [8] | level (log10) [9] | level (log10) ([10]; 740 nM) | level (log10) ([10]; 2200 nM) | level (log10) [11] | level (log10) [12] | level (log10) ([13]; 2200 nM) | level (log10) ([13]; 6700 nM) | level (log10) ([13]; 20000 nM) | level (log10) ([13]; 60000 nM) | level (log10) [14] | level (log10) (Heptafluorobutyl iodide) | level (log10) [15] | level (log10) [16]
1 | KF3CT:TIMP-2 | 0 ± 0.0028 | 0 ± 0.0028 | 0.015 ± 0.034 | 0.0085 ± 0.026 | -0.006 ± 0.0057 | -0.005 ± 0.013 | 0.0015 ± 0.019 | 0.003 ± 0.041 | 0.0015 ± 0.015 | -0.019 ± 0.051 | -0.029 ± 0.041 | 0.0325 ± 0.056 | 0.008 ± 0.03 | -0.013 ± 0.0071 | -0.0275 ± 0.012 | -0.06 ± 0.021 | -0.0105 ± 0.042 | -0.016 ± 0.011 | -0.019 ± 0.031 | 0.0025 ± 0.023 | 0.0095 ± 0.021 | -0.0325 ± 0.011 | 0.003 ± 0.028 | 0.002 ± 0.031 | -0.011 ± 0.016 | 0.004 ± 0.0099 | -0.0065 ± 0.0064 | -0.0015 ± 0.00071 | -0.0205 ± 0.021 | -0.011 ± 0.0042
2 | LPS:CD62E/E-Selectin | -0.002 ± 0.0057 | 0.002 | 0.0285 ± 0.00071 | -0.002 ± 0.02 | -0.0115 ± 0.022 | -0.023 ± 0.0014 | -0.016 ± 0.016 | 0.0045 ± 0.0078 | -0.004 ± 0.011 | 0.0005 ± 0.022 | -0.0335 ± 0.0021 | -0.048 ± 0.065 | -0.056 ± 0.034 | 0.0065 ± 0.00071 | -0.015 ± 0.023 | 0.018 ± 0.016 | 0.0115 ± 0.016 | -0.005 ± 0.031 | 0.0065 ± 0.047 | 0.0055 ± 0.025 | 0.003 ± 0.021 | 0.023 ± 0.021 | -0.0075 ± 0.005 | -0.006 ± 0.013 | 0.002 ± 0.0028 | 0.0075 ± 0.011 | 0.0015 ± 0.028 | 0.0165 ± 0.06 | -0.005 ± 0.011 | 0.0035 ± 0.03
3 | 4H:CCL26/Eotaxin-3 | 0.0075 ± 0.011 | 0.0135 ± 0.0021 | 0.004 ± 0.014 | 0.01 ± 0.035 | 0.0095 ± 0.037 | 0.0315 ± 0.029 | 0.0275 ± 0.016 | 0.022 ± 0.0014 | 0.0005 ± 0.0078 | 0 ± 0.017 | 0.012 ± 0.011 | 0.0135 ± 0.016 | 0.035 ± 0.041 | 0.0025 ± 0.00071 | -0.0145 ± 0.013 | -0.03 ± 0.042 | -0.0105 ± 0.12 | 0.0325 ± 0.053 | 0.019 ± 0.062 | -0.001 ± 0.033 | 0.019 ± 0.02 | -0.0005 ± 0.013 | -0.0115 ± 0.005 | -0.0165 ± 0.012 | -0.008 ± 0.011 | 0.008 ± 0.0085 | 0.0085 ± 0.044 | 0.0245 ± 0.049 | 0.0075 ± 0.029 | 0.0215 ± 0.037
4 | 4H:SRB | 0.0135 ± 0.022 | -0.0075 ± 0.005 | 0.0075 ± 0.011 | -0.019 ± 0.018 | -0.0195 ± 0.0078 | -0.0055 ± 0.005 | -0.017 ± 0.021 | 0.0145 ± 0.0021 | 0.0045 ± 0.0078 | 0.009 ± 0.0071 | 0.009 ± 0.011 | 0.0185 ± 0.012 | -0.0005 ± 0.025 | 0.0145 ± 0.018 | -0.005 ± 0.011 | -0.0815 ± 0.0021 | -0.0105 ± 0.005 | -0.0025 ± 0.00071 | 0.01 ± 0.0057 | 0.016 ± 0.021 | -0.0065 ± 0.0021 | 0.003 ± 0.0071 | 0.004 ± 0.014 | -0.0085 ± 0.0092 | -0.003 ± 0.0071 | 0.0055 ± 0.0035 | 0.006 ± 0.0099 | -0.0015 ± 0.005 | 0.0095 ± 0.016 | -0.007 ± 0.0085
